Measured values published in doi:10.1101/244665 (bioRxiv, 2019).
No constants are given. Whether binding was seen depends on the method and setting.

By UniProt entry, the sequences of proteins in these tests, tags left out. Where a name states a change or a piece, a line headed by the entry shows the natural chain unless it says otherwise.
UniProt Q8IL11, whole entry, looked up, stated change not applied: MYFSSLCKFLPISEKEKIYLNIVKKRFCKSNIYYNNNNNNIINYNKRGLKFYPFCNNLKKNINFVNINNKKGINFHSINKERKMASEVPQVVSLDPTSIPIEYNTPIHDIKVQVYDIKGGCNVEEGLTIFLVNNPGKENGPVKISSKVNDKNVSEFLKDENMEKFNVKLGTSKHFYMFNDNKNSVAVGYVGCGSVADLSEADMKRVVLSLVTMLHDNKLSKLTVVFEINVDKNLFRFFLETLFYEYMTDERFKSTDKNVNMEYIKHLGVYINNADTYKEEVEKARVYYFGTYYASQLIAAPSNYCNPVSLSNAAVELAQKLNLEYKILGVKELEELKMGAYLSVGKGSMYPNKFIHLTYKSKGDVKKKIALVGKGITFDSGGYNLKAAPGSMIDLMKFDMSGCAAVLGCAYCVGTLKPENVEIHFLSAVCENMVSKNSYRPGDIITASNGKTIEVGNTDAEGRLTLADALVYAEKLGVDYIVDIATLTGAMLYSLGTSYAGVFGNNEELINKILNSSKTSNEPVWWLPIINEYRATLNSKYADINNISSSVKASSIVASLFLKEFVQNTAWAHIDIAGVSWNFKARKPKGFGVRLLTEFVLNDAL

Target: PfA-M17(W525A+Y533A) (Plasmodium falciparum) (UniProt Q8IL11)
Test: AUC

For “PfA-M17(W525A+Y533A) (from UniProt Q8IL11 85-605) (enzyme)”, the binding was “no binding (tested: 0.5 mg/ml)”.
